From US20220184172A1, “AMPK/CASPASE-6 AXIS CONTROLS LIVER DAMAGE IN NONALCOHOLIC STEATOHEPATITIS” (The Regents of the University of California, priority 2019, published 2022) come the findings set out here.

One data set deals with CD-HFD fed C57BL/6J mice. Put plainly: AMPK agonist A-769662 in CD-HFD-induced NASH, C57BL/6J mice. Format: in vivo. The conditions noted are these: 25 mg/kg i.p. once per day for two weeks after 6 weeks CD-HFD. The method, then:
FIGS. 4A-4L. Both an AMPK agonist and a caspase-6 inhibitor therapeutically improve liver damage. FIG. 4A-4I. C57BL/6J mice were fed CD-HFD for 6 weeks, followed by intraperitoneally injection of 25 mg/kg A-769662 or vehicle daily for 2 weeks while continuous CD-HFD. FIG. 4A. Liver sections stained as indicated: TUNEL and DAPI. In the merged image section, the different stains correspond to the grayscale shades as indicated in the single stained images to the left. Scale bar=50 μm. FIG. 4B. Quantification of TUNEL-positive nuclei per field in FIG. 4A. n=7. FIG. 4C-4E. Serum ALT (FIG. 4C), AST (FIG. 4D) and ALP (FIG. 4E). n=7. FIG. 4F. H&E and Sirius red staining of liver sections as indicated. Scale bar=100 μm. FIG. 4G. Quantification of liver fibrosis area (% of total area) in FIG. 4F. n=7. FIG. 4H. Liver hydroxyproline. n=8. FIG. 4I. Expression of Tgfb, Timp1, Col1a1, Col3a1, Pdgfa, Pdgfb, Pdgfra and Ddr2 in livers. n=8. *, P<0.05, Student's unpaired t test. FIGS. 4J-4L. Flox and LAKO mice were fed CD-HFD for 6 weeks, followed by intraperitoneally injection of 5 mg/kg VEID (SEQ ID NO: 71) or vehicle every other day for 2 weeks while continuous feeding. FIG. 4J. […] Quantification of TUNEL-positive nuclei per field in FIG. 4J. n=5-6. […]
FIGS. 5A-5K. […] Quantification of aCasp6 staining per field in FIG. 5I. n=7. […]

In data set [1] the test system is CD-HFD-fed Flox and LAKO mice. Put plainly: Caspase-6 inhibitor Z-VEID-FMK in CD-HFD-fed Flox and LAKO mice. Type of data set: in vivo. The conditions noted are these: 5 mg/kg i.p. every other day for two weeks after 6 weeks CD-HFD. An excerpt: FIG. 4A. […] Scale bar=50 μm. FIG. 4B. […] FIG. 4F. […] Scale bar=100 μm. FIG. 4G. […] Scale bar=50 μm.
FIG. 6A. […] FIG. 6B. […] FIG. 6C. […] FIG. 6D. […] FIG. 6E. […] FIG. 6F.
FIGS. 14A-14G. […] FIG. 14A. […] Scale bar=100 μm.

In the case of `N#Cc1c(O)c2c(-c3ccc(-c4ccccc4O)cc3)csc2[nH]c1=O` [A-769662], in the data set on CD-HFD fed C57BL/6J mice, the body weight result is recorded as “no effect” and the liver weight result was “no effect”.

Consider “Z-VEID-FMK (N-terminal Z (Cbz), C-terminal FMK)”, for which, in data set [1], the body weight result is reported as “did not affect” and the liver weight result is on record as “did not affect”.
